# Data source: PubChem BioAssay AID1259254 (NCATS, 2017)
# Test: 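Gene knock-downs that lead to re-replication, shown by excess G2 DNA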 (primary screen)
# System: human HCT116 colorectal cancer cells
# Reagent: single siRNA against human genes
# Duration: 3 days
# Measured: 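Nuclei stained with Hoechst and imaged; cell-cycle phase assigned by DNA content; G2 share scaled per plate, non-targeting siRNA 0%, GMNN siRNA 100%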
# Direction: G2 robust z-score: higher = more G2 cells, more excess DNA replication
# Active means: 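An siRNA counts as active if its G2 robust z-score lies at least 5 MADs above the screen median; here such calls match roughly 38% of GMNN control or more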
# The deposit covers about 59,000 reagents; shown is a random part of them. About 1,550 of all reagents (2.6%) were called active. 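G2 share is only a proxy for re-replication; each gene was hit by three separate siRNAs, and active genes were retested.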 A number with no mark means an inactive call. The numbers tell different reagents against one gene apart. Not all columns of the deposit are shown. Not given: the amount of reagent.
Gene,reagent,G2 robust z-score
CD248,1,0.00192
CD248,2,1.83
CD248,3,4.64
GPX5,1,-0.658
GPX5,2,0.168
GPX5,3,5.98 (active)
NTAN1,1,-0.376
NTAN1,2,-0.253
NTAN1,3,-0.649
SELENOO,1,0.679
SELENOO,2,-0.277
SELENOO,3,-0.927
SNX32,1,0.492
SNX32,2,-0.477
SNX32,3,1.52
PATJ,1,0.121
PATJ,2,-0.972
PATJ,3,-0.36
MRGBP,1,1.08
MRGBP,2,0.0485
MRGBP,3,-0.0449
RADX,1,0.443
RADX,2,0.354
RADX,3,-0.83
STX7,1,0.285
STX7,2,-0.217
STX7,3,-0.104
VDAC1,1,1.85
VDAC1,2,0.312
VDAC1,3,-0.539
COL21A1,1,-1.29
COL21A1,2,0.223
COL21A1,3,-0.323
HAPLN4,1,-0.341
HAPLN4,2,-0.226
HAPLN4,3,1.34
KCNK13,1,-0.253
KCNK13,2,-0.946
KCNK13,3,0.897
CAMK2D,1,-1.14
CAMK2D,2,-0.584
CAMK2D,3,-0.694
ABHD16A,1,0.446
ABHD16A,2,-0.567
ABHD16A,3,0.0151
CNN1,1,0.156
CNN1,2,4.27
CNN1,3,-0.383

Quoted from the entries so far for reference:
Gene,reagent,G2 robust z-score
MRGBP,3,-0.0449
RADX,1,0.443
RADX,2,0.354
